The data set is described as follows: Reduction of HMF in sugar liquor after contact with amine. Here is the method: Sugar liquor was prepared by a two-step hydrolysis process with subsequent refining. A slurry of particulate biomass was first subjected to a first hydrolysis step at about 190-240° C. and 50-80 bar for 1-120 min. The resulting solids were subjected to supercritical or near-critical water conditions at about 374-450° C. and 221-300 bar for less than 1 minute. The resulting liquid portion was concentrated to about 250-300 g/L of monomer sugar equivalent and acid hydrolyzed at about 100-200° C. for 1 hour. The acid-hydrolyzed liquor was filtered and neutralized with sodium hydroxide to a pH of about 5-7. After that, the liquid portion was overlimed with calcium oxide at pH of about 8-10 and filtered. The final pH adjustment to about 5-7 was done with 70% sulfuric acid. Overliming was performed to produce the sugar liquor used in these examples, and an aldehyde compound, HMF, subsequently re-added to simulate a sugar liquor that is not overlimed.
The pH of 100 g of the sugar liquor was adjusted to 6 with sodium hydroxide prior to addition of the amine. 1 g of m-phenylenediamine (MPD) was added to the sugar liquor, and the mixture was shaken for 1 hour.
Using the same procedure to prepare the sugar liquor as described in Example 1, the pH of 100 g of the sugar liquor was adjusted to 6 with NaOH prior to addition of the amine. For each sample, 1 g of amine was added, and the mixture was shaken for 1 hour.
Using the same procedure to prepare the sugar liquor as described in Example 1, the pH of 100 g of the sugar liquor was adjusted to 6 with sodium hydroxide prior to addition of the amine. For each sample, 1 g of amine was added, and the mixture was shaken for 1 hour.

[1] abbreviates: sugar liquor after contact, 1 g amine per 100 g liquor, pH 6, shaken 1 hour.
[2] abbreviates: Table 6, sugar liquor after contact, 1 g amine per 100 g liquor, pH 6, shaken 1 hour.

Each structure is given as a SMILES string.

For the compound `Cc1ccc(N)cc1N` [DAT, 2,4-diaminotoluene], under setting [1], the “Acetic Acid” value turned out to be 1.34 g/L, the Glucose is 158.80 g/L and the Xylose was 21.30 g/L.
As for `Nc1cccc(N)c1` [MPD, m-phenylenediamine], under setting [1], the “Acetic Acid” value is 1.99 g/L, the Glucose stood at 149.44 g/L and the Xylose came out at 23.22 g/L.
In the case of `Nc1ccccc1N` [OPD, o-phenylenediamine], under setting [1], the “Acetic Acid” value worked out at 1.39 g/L, the Glucose amounted to 156.03 g/L and the Xylose is 20.62 g/L.
Take `Nc1ccc(N)cc1` [PPD, p-phenylenediamine]: under setting [1], the “Acetic Acid” value is 1.49 g/L, the Glucose was 154.69 g/L and the Xylose stood at 20.93 g/L.
The compound `Nc1ccccc1` [aniline] showed a Xylose under setting [2] of 22.78 g/1. Moreover, under setting [1], the “Acetic Acid” value worked out at 1.42 g/L and the Glucose came to 165.00 g/L.
`NCCO` [ethanolamine] yielded a Xylose under setting [2] of 21.37 g/1. Under setting [1], the “Acetic Acid” value was determined as 1.50 g/L and the Glucose was 155.94 g/L.
Under setting [2], `Nc1nc(N)nc(N)n1` [melamine] had a Xylose of 21.79 g/1. Under setting [1], the “Acetic Acid” value was 1.40 g/L and the Glucose is 159.77 g/L.
Take `C1CCNCC1` [piperidine]: under “pH 6”, the “Acetic Acid” value came to 1.55 g/L, the Glucose came to 156.87 g/L and the Xylose amounted to 21.63 g/1.
Under setting [2], `NC(N)=O` [urea] returned a Xylose of 22.10 g/1. Further, under setting [1], the “Acetic Acid” value was found to be 1.56 g/L and the Glucose came out at 159.33 g/L.
